# PubChem BioAssay AID1347423 (Functional Genomics Laboratory (NCATS/FGL), 2020)
# About 210 (0.4%) of roughly 52,000 sequences were called active.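 Rule for the calls: active = gene whose silencing raises cell survival under the drug, median off-target-corrected z-score across its silencing RNAs 2 or more; inactive = the rest.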 Some of the results follow.
# Test: Resistance to Poly (ADP-Ribose) Polymerase inhibitor: Gene Identification via Genome-wide siRNA Screen
# Conditions: mouse BRCA2 R2336H ES cells, olaparib, CellTiter-Glo viability; stronger effect = higher value
# In short: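 Genome-wide siRNA screen (3 siRNAs/gene, 20 nM) in mouse ES cells carrying hypomorphic BRCA2 R2336H; olaparib 500 nM added 48 h post-transfection, CellTiter-Glo viability 72 h later. Normalized to plate-median negative control; MAD z-scores, gene median, seed-adjusted.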
row,Sequence,z-score
1,GGAUCAAAUUCUACCUUAGTT against Tbc1d5,inactive: -0.855
2,GGAGUAUCUGCGUUAUCUUTT against Tsnaxip1,inactive: 1.33
3,GCGCGAUAGAUUUUGUUUATT against 2610524G09Rik,inactive: 0.614
4,CCCAGCUGGCAUGAUCUUUTT against 0610038K03Rik,inactive: 0.0488
5,GCCAAGAGUUUAGCACUUUTT against Acrbp,inactive: 0.00874
6,GCCGCCCUUACCCUAUUUATT against Tceal1,inactive: 0.539
7,GGAAAGCUUCAGAAUCUAATT against Bckdk,inactive: 0.484
8,GCCUAUGCACCUUACCUUUTT against Uble1a,inactive: 1.07
9,GGAACUUGAGGUUUUCUGGTT against 4931427F14Rik,inactive: 0.26
10,GCAGAAGACAUCGUACCAATT against Mcm4,inactive: -2.21
11,CCAAAUGUUUCGUUAAACUTT against Trf,inactive: 0.881
12,GCAGCUAGUGGUUUCUUUGTT against Stra6,inactive: -0.319
13,GCCCUGUACACGGUAAACUTT against Ccrl1,inactive: 3.09
14,GGAGUUUACUGAGUUUUAGTT against Prkaca,inactive: 1.17
15,GUAUCAGUGCCAGAGCUACTT against Lor,inactive: 0.651
16,CGUGUAAACGAAGUUAUCATT against 6030408C04Rik,inactive: 0.765
17,GGAAAUGAAAACUUCUGUUTT against Nudt15,inactive: -0.543
18,GGGCAUAGUGACCAGGUUATT against Fgf14,inactive: -0.94
19,GGUAUGUUUGCAUCUUUUUTT against E130310K16Rik,inactive: 0.158
20,GCGCAAUGACGAUAAACUCTT against Sema3f,inactive: 1.03
21,CGAUAUGCAUGCGAAUAGATT against Zcchc5,inactive: 0.0865
22,GCUCAGACAGCUUCGACAUTT against Ngep,inactive: 0.676
23,GGGAGGUUACUAUGGAGACTT against Mia,inactive: 0.00137

# Random excerpt: four entries already listed
row,Sequence,z-score
6,GCCGCCCUUACCCUAUUUATT against Tceal1,inactive: 0.539
9,GGAACUUGAGGUUUUCUGGTT against 4931427F14Rik,inactive: 0.26
8,GCCUAUGCACCUUACCUUUTT against Uble1a,inactive: 1.07
12,GCAGCUAGUGGUUUCUUUGTT against Stra6,inactive: -0.319

# Carrying on:

row,Sequence,z-score
1,GGACAGUUCUUACUUUACATT against Drd2,inactive: -0.377
2,CCAUGCUUGAGAGGAAUAATT against Hint3,inactive: -2.48
3,GGUGUAGCUGGAAUUGGCATT against AU022726,inactive: -0.713
4,GGAUAAUCGAAUUGAUUGUTT against D9Wsu20e,inactive: -0.142
5,GGAGAAGUAAAACUCGAAGTT against Rwdd2,inactive: 0.113
6,GGACGACCUCAUUCUUUUUTT against Adn,inactive: 0.55
7,GGGCGAGAUGCAUAAGGAUTT against Rohn,inactive: 1.81
8,GGUCAAGUGUCUGAACAACTT against Fkbp8,inactive: -0.899
9,GGCAGACUUUUGACAACUATT against 6430546I09,inactive: -1.4
10,GUUUCCUCAAUGUCUCAGUTT against Olfr1461,inactive: 0.934
11,GGAAACCGUUUUUUUUUUCTT against Appbp2,inactive: -0.767
12,CCUGGCACUCAUAGUAUACTT against Tm6sf2,inactive: 0.163
13,GGGCCUUCAGAAGAACAUGTT against Ganab,inactive: -1.5
14,GGAGAACAGUAACAUUUUUTT against Pcdh7,inactive: -0.494
15,GGCCAUAGUCCUGUUCACCTT against Nr2f2,inactive: 0.454
16,GGACAGAUCUUUGAAGCAGTT against Vps18,inactive: -1.8
17,GGAAAACUAUGCAGGCAUCTT against Capn2,inactive: -0.919
18,GCUGCGUAGAACCAUAUGCTT against Cst9,inactive: 1.56
19,GCUAAUCGGAUGCUGAAGCTT against Psmb7,inactive: -1.98
20,GGAAGUAUUGACGAGUGGGTT against BC061259,inactive: -0.122
21,GGUGUUAGGGCUCAAAUAUTT against Glce,inactive: -1.87
22,CCAUCAUGAACACUCAACATT against Olfr462,inactive: -2.9
23,GGCGGAGAAUCACCUCACATT against Tgfbrap1,inactive: -1.14

row,Sequence,z-score
1,CGGAUUUUAAAAGGUCACGTT against Vti1a,inactive: 1.2
2,GGAGACAUUGUCCUCUACATT against Car14,inactive: -2.59
3,GCAGCUUGUAUGCAGCACUTT against 4632417K18Rik,inactive: 0.136
4,GGAGAUCUUAGCAAAGUAUTT against Degs,inactive: -1.64
5,CCUUGGAGUGAAGGAUCGCTT against Cited1,inactive: 0.387
6,GUAUGUUUGGGCUUAGCCUTT against Olfr1348,inactive: -0.426
7,GCAGUGUCAGAGUUAGAAATT against Pon1,inactive: -0.209
8,CCAUGGUUAACAUUGACAUTT against Ppp1r16b,inactive: -0.166
9,GCGCAUUCAGAUUGUAACATT against Nr2c2,inactive: -0.869
10,GGUGUGAGUGUCGGAAUCUTT against B930052A04Rik,inactive: 0.258
11,GGAGCUGAAAACCUGAGGATT against Pkn2,inactive: -1.09
12,GGCAAAAACCAUAAACUAGTT against Clcn4-2,inactive: -1.2
13,GGGUAACAGAUACUGUUAUTT against A730041O15Rik,inactive: 0.642
14,GGACUGCCCUUUGGACAAATT against V1ri1,inactive: -1.41
15,CCUCUCCAUACUCACCAUGTT against Fbxo23,inactive: -0.257
16,GCAUAAGUAUAAUCCUGUUTT against Plagl1,inactive: -0.0918
17,UGGUUACGAACCCAUGGGUTT against Amelx,inactive: -2.44
18,CCAUUGGUUUUGAGGAUAUTT against 2510048O06Rik,inactive: -3.24
19,GGGAAACUAUUCUAGACGCTT against 1700113O17Rik,inactive: 0.187
20,AGAUAUUUGGCUGUGACCGTT against Amt,inactive: 0.816
21,CCACGUCUCUUAAGUGAAATT against Scamp1,inactive: -0.0595
